Data from article PMC9410764, “EmCyclinD-EmCDK4/6 complex is involved in the host EGF-mediated proliferation of Echinococcus multilocularis germinative cells via the EGFR-ERK pathway” (Frontiers in Microbiology, 2022).
Results are given in words; binding and its absence hold for the method and conditions named. In cells and extracts the contact can be indirect.

Protein sequences, listed by entry. Tags and fused reporters are not part of them.
UniProt A0A068Y4X2: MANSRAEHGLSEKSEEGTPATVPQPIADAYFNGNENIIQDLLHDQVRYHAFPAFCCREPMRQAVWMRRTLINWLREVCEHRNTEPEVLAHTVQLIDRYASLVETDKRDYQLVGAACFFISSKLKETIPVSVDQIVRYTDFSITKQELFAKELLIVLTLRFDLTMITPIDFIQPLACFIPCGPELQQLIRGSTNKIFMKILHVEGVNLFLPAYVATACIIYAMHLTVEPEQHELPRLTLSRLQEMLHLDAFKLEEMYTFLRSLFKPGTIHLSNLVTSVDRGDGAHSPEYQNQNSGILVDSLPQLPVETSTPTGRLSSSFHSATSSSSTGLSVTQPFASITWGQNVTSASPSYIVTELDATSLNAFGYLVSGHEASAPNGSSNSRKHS

Target: T1, EmCDK2 (Echinococcus multilocularis CDK2 homolog, locus EmuJ_000258800) (Echinococcus multilocularis)
T1 sequence: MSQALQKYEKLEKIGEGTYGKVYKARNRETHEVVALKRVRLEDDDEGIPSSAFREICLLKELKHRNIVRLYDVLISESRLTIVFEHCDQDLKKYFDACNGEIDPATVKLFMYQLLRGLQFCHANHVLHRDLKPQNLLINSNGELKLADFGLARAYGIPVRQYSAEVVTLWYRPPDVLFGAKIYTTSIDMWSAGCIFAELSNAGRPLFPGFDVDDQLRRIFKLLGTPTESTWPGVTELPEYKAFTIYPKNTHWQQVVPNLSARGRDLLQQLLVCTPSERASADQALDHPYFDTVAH
Assay: co-IP; expression plasmids co-transfected into HEK-293T cells; lysates harvested 36 h after transfection in RIPA lysis buffer; anti-Myc or anti-HA antibody conjugated Sepharose beads; blot with anti-Myc and anti-HA

- binding: no binding
Substance: EmCyclinD (Echinococcus multilocularis cyclin D homolog, locus EmuJ_000456500), Myc-tagged (from UniProt A0A068Y4X2 1-386)
